Measured values as given in the supplement of paper PMC8256030.
“And” between values parts separate entries of the source, which are not always exact repeats. Equal entries are not always repeated. Some of the results follow. Repeats in this data set agree poorly, so a single value says little.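 HEK293T cells were given each compound shortly before transfection with a reporter in which red mCherry is followed by the SARS-CoV-2 frameshift element and then GFP in the −1 frame, so GFP appears only after frameshifting.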

Assays:
[1] = tested on: SARS-CoV-2 -1 PRF reporter mCherry-FSE-GFP(-1); test: mCherry (red) intensity as percent of control; higher = higher upstream reporter expression; details: 10 µM; 24 h; HEK293T
[2] = tested on: SARS-CoV-2 -1 PRF reporter mCherry-FSE-GFP(-1); test: percent effect, decrease of GFP/mCherry ratio (-1 PRF reporter) relative to controls; higher = stronger frameshift inhibition; details: 10 µM; 24 h; HEK293T

Compound | mCherry [1] | percent effect [2]
O=C(O)CCC(=O)c1ccc2oc3ccccc3c2c1 [furobufen] | 73.8% | -8.48%
Cc1ncc([N+](=O)[O-])n1CC(C)O (centres undefined) [secnidazole] | 110% and 86.8% | -0.00663% and -0.767%
CC(C)Cc1ccc(C(C)C(=O)NCCO)cc1 (centres undefined) [mabuprofen] | 123% | -5.71%
C/C=C/C(=O)N(CCC)C(CC)C(=O)N(C)C (centres undefined) [cropropamide] | 67.3% | -0.343%
CC(=O)OC(C)C[N+](C)(C)C (centres undefined) [methacholine chloride] | 96% | -3.17%
COc1cc([C@@H]2c3cc4c(cc3[C@@H](O[C@@H]3O[C@@H]5CO[C@@H](c6cccs6)O[C@H]5[C@H](O)[C@H]3O)[C@H]3COC(=O)[C@H]23)OCO4)cc(OC)c1O [teniposide] | 28.4% | -1.72%
COc1ccc2c(O[C@@H]3C[C@H]4C(=O)N[C@]5(C(=O)NS(=O)(=O)C6CC6)C[C@H]5/C=C\CCCCN(C)C(=O)[C@@H]4C3)cc(-c3nc(C(C)C)cs3)nc2c1C [Simeprevir] | 76.3% | 1.47%
Cc1[nH]c2ccccc2c1C[C@@H](NC(=O)[C@@H](N)Cc1c[nH]cn1)C(=O)N[C@@H](C)C(=O)N[C@@H](Cc1c[nH]c2ccccc12)C(=O)N[C@H](Cc1ccccc1)C(=O)N[C@@H](CCCCN)C(N)=O [examorelin] | 121% | -0.624%
Cc1cc(C(C)(C)C)cc(C)c1CC1=NCCN1 [xylometazoline] | 96.9% | -2.71%
CN1CC(=O)N2[C@H](c3ccc4c(c3)OCO4)c3[nH]c4ccccc4c3C[C@@H]2C1=O [tadalafil] | 129% | -1.27%
Cc1cc(O)c(C(=O)N[C@@H](C(=O)N[C@@H]2C(=O)N3C(C(=O)O)=C(CSc4nnnn4C)CS[C@H]23)c2ccc(O)cc2)cn1 [Cefpiramide] | 119% | -6.94%
CC(C)(C)NC[C@H](O)COc1ccccc1C1CCCC1 [penbutolol] | 68.2% | 1.51%
COc1c2occc2c(OC)c2c(=O)cc(C)oc12 [khellin] | 91.8% | -0.931%
CCCCNc1ccc(C(=O)OCCN(C)C)cc1 [tetracaine] | 93.3% | -4.51%
OC(CCN1CCCCC1)(c1ccccc1)C1CC2C=CC1C2 (centres undefined) [biperiden] | 105% | -0.105%
CCC(C(=O)NC(N)=O)c1ccccc1 (centres undefined) [pheneturide] | 143% | -1.14%

Ordered by molar mass (rising): 9 of the compounds above.
Compound | mCherry [1] | percent effect [2]
CC(=O)OC(C)C[N+](C)(C)C (centres undefined) [methacholine chloride] | 96% | -3.17%
Cc1ncc([N+](=O)[O-])n1CC(C)O (centres undefined) [secnidazole] | 110% and 86.8% | -0.00663% and -0.767%
CCC(C(=O)NC(N)=O)c1ccccc1 (centres undefined) [pheneturide] | 143% | -1.14%
C/C=C/C(=O)N(CCC)C(CC)C(=O)N(C)C (centres undefined) [cropropamide] | 67.3% | -0.343%
Cc1cc(C(C)(C)C)cc(C)c1CC1=NCCN1 [xylometazoline] | 96.9% | -2.71%
CC(C)Cc1ccc(C(C)C(=O)NCCO)cc1 (centres undefined) [mabuprofen] | 123% | -5.71%
O=C(O)CCC(=O)c1ccc2oc3ccccc3c2c1 [furobufen] | 73.8% | -8.48%
CC(C)(C)NC[C@H](O)COc1ccccc1C1CCCC1 [penbutolol] | 68.2% | 1.51%
CN1CC(=O)N2[C@H](c3ccc4c(c3)OCO4)c3[nH]c4ccccc4c3C[C@@H]2C1=O [tadalafil] | 129% | -1.27%

(more compounds)

Compound | mCherry [1] | percent effect [2]
CC(N/C(=N\C#N)Nc1ccncc1)C(C)(C)C (centres undefined) | 92.2% | -3.46%
O=C(CCCN1CCC(n2c(=S)[nH]c3ccccc32)CC1)c1ccc(F)cc1 [timiperone] | 50.5% | 3.96%
N=C(N)NC(=N)N1CCOCC1 [moroxydine] | 108% | -0.972%
Cc1ccccc1OCC(O)CN1CC=CCC1 (centres undefined) [tolpronine] | 98.4% | -0.859%
CNCC[C@@H](Oc1ccccc1C)c1ccccc1 [Atomoxetine, Strattera,Tomoxetin] | 70.1% | 1.57%
CN(C)CC(c1ccc(O)cc1)C1(O)CCCCC1 (centres undefined) [desvenlafaxine] | 62.1% | -1.96%
CN(CCOP(=O)(O)O)C(=N)N [creatinolfosfate] | 114% | -1.37%
CCN(CC)C(=O)C1(c2ccccc2)CC1CN (centres undefined) | 108% | 0.398%
CCCCC1C(=O)N(c2ccccc2)N(c2ccccc2)C1=O [phenylbutazone] | 80.5% and 89.6% | -4.9% and -0.423%
CC/N=C(\NCC)NCCCC[C@H](NC(=O)[C@H](CC(C)C)NC(=O)[C@@H](CCCCN/C(=N/CC)NCC)NC(=O)[C@H](Cc1ccc(O)cc1)NC(=O)[C@H](CO)NC(=O)[C@@H](Cc1cccnc1)NC(=O)[C@@H](Cc1ccc(Cl)cc1)NC(=O)[C@@H](Cc1ccc2ccccc2c1)NC(C)=O)C(=O)N1CCC[C@H]1C(=O)N[C@H](C)C(N)=O [Ganirelix] | 47% | -6.06%
NC(=O)C(=O)N/N=C/c1ccc([N+](=O)[O-])o1 [nifuraldezone] | 105% | -9.15%
CCCNC(C)C(=O)Nc1ccccc1C (centres undefined) [prilocaine] | 104% | -3.68%
CCCCCCCCCC(=O)N[C@@H](Cc1c[nH]c2ccccc12)C(=O)N[C@@H](CC(N)=O)C(=O)N[C@@H](CC(=O)O)C(=O)N[C@@H]1C(=O)NCC(=O)N[C@@H](CCCN)C(=O)N[C@@H](CC(=O)O)C(=O)N[C@H](C)C(=O)N[C@@H](CC(=O)O)C(=O)NCC(=O)N[C@H](CO)C(=O)N[C@@H]([C@H](C)CC(=O)O)C(=O)N[C@@H](CC(=O)c2ccccc2N)C(=O)O[C@@H]1C | 94.4% | -7.05%
CN1C(C(=O)Nc2ccccn2)=C(O)c2ccccc2S1(=O)=O | 99.3% | -2.28%
COc1ccc2c(c1)c(-c1ccccc1)nc(=O)n2CC1CC1 [ciproquazone] | 55.9% | -7.1%
CC(=O)N1CCC(c2ccc(C(=O)N=C(N)N)cc2C(F)(F)F)CC1 | 69.3% | -0.169%
